This experiment has as its target PTEN (endogenous, A549) (human (endogenous in A549)) (UniProt P60484). The experiment is described as follows: co-IP; A549 cells with or without 50x isoleucine for 48 h; immunoprecipitation with anti-PTEN antibody (protein A immunomagnetic bead kit), Western blot; IgG as negative control. Background: A western blot detects proteins with antibodies after separation by electrophoresis.

The chains behind the UniProt entries cited, without tags or fusion partners.
UniProt P60484: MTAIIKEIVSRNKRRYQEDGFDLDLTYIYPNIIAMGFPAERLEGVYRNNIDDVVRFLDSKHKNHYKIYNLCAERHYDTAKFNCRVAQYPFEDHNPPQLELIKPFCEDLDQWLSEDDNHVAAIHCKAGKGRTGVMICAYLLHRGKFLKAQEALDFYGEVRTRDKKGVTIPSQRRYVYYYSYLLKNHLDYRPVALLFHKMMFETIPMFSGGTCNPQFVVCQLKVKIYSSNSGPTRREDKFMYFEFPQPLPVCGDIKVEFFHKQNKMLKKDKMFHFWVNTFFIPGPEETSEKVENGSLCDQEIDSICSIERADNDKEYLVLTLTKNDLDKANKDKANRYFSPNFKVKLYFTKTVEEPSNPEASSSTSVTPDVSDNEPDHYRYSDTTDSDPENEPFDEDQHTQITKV

These are yes or no findings as the source states them, for the method shown. In cells and extracts the contact can be indirect. Some binding calls cover weakened binding; strength is not graded here.

B1: Isoleucine-tRNA ligase, mitochondrial (enzyme, UniProt Q9NSE4 49-1012)
chain: SNHQPNSNSGRYRDTVLLPQTSFPMKLLGRQQPDTELEIQQKCGFSELYSWQRERKVKTEFCLHDGPPYANGDPHVGHALNKILKDIANRFHMMNGSKIHFVPGWDCHGLPIEIKVLSELGREAQNLSAMEIRKKARSFAKAAIEKQKSAFIRWGIMADWNNCYYTFDGKYEAKQLRTFYQMYDKGLVYRSYKPVFWSPSSRTALAEAELEYNPEHVSRSIYVKFPLLKPSPKLASLIDGSSPVSILVWTTQPWTIPANEAVCYMPESKYAVVKCSKSGDLYVLAADKVASVASTLETTFETISTLSGVDLENGTCSHPLIPDKASPLLPANHVTMAKGTGLVHTAPAHGMEDYGVASQHNLPMDCLVDEDGVFTDVAGPELQNKAVLEEGTDVVIKMLQTAKNLLKEEKLVHSYPYDWRTKKPVVIRASKQWFINITDIKTAAKELLKKVKFIPGSALNGMVEMMDRRPYWCISRQRVWGVPIPVFHHKTKDEYLINSQTTEHIVKLVEQHGSDIWWTLPPEQLLPKEVLSEVGGPDALEYVPGQDILDIWFDSGTSWSYVLPGPDQRADLYLEGKDQLGGWFQSSLLTSVAARKRAPYKTVIVHGFTLGEKGEKMSKSLGNVIHPDVVVNGGQDQSKEPPYGADVLRWWVADSNVFTEVAIGPSVLNAARDDISKLRNTLRFLLGNVADFNPETDSIPVNDMYVIDQYMLHLLQDLANKITELYKQYDFGKVVRLLRTFYTRELSNFYFSIIKDRLYCEKENDPKRRSCQTALVEILDVIVRSFAPILPHLAEEVFQHIPYIKEPKSVFRTGWISTSSIWKKPGLEEAVESACAMRDSFLGSIPGKNAAEYKVITVIEPGLLFEIIEMLQSEETSSTSQLNELMMASESTLLAQEPREMTADVIELKGKFLINLEGGDIREESSYKVIVMPTTKEKCPRCWKYTAESSDTLCPRCAEVVSGK
As to B1, the binding entry was “binds weakly”.

B2: Isoleucine-tRNA ligase, cytoplasmic (enzyme, UniProt P41252 1-1262)
chain: MLQQVPENINFPAEEEKILEFWTEFNCFQECLKQSKHKPKFTFYDGPPFATGLPHYGHILAGTIKDIVTRYAHQSGFHVDRRFGWDCHGLPVEYEIDKTLGIRGPEDVAKMGITEYNNQCRAIVMRYSAEWKSTVSRLGRWIDFDNDYKTLYPQFMESVWWVFKQLYDKGLVYRGVKVMPFSTACNTPLSNFESHQNYKDVQDPSVFVTFPLEEDETVSLVAWTTTPWTLPSNLAVCVNPEMQYVKIKDVARGRLLILMEARLSALYKLESDYEILERFPGAYLKGKKYRPLFDYFLKCKENGAFTVLVDNYVKEEEGTGVVHQAPYFGAEDYRVCMDFNIIRKDSLPVCPVDASGCFTTEVTDFAGQYVKDADKSIIRTLKEQGRLLVATTFTHSYPFCWRSDTPLIYKAVPSWFVRVENMVDQLLRNNDLCYWVPELVREKRFGNWLKDARDWTISRNRYWGTPIPLWVSDDFEEVVCIGSVAELEELSGAKISDLHRESVDHLTIPSRCGKGSLHRISEVFDCWFESGSMPYAQVHYPFENKREFEDAFPADFIAEGIDQTRGWFYTLLVLATALFGQPPFKNVIVNGLVLASDGQKMSKRKKNYPDPVSIIQKYGADALRLYLINSPVVRAENLRFKEEGVRDVLKDVLLPWYNAYRFLIQNVLRLQKEEEIEFLYNENTVRESPNITDRWILSFMQSLIGFFETEMAAYRLYTVVPRLVKFVDILTNWYVRMNRRRLKGENGMEDCVMALETLFSVLLSLCRLMAPYTPFLTELMYQNLKVLIDPVSVQDKDTLSIHYLMLPRVREELIDKKTESAVSQMQSVIELGRVIRDRKTIPIKYPLKEIVVIHQDPEALKDIKSLEKYIIEELNVRKVTLSTDKNKYGIRLRAEPDHMVLGKRLKGAFKAVMTSIKQLSSEELEQFQKTGTIVVEGHELHDEDIRLMYTFDQATGGTAQFEAHSDAQALVLLDVTPDQSMVDEGMAREVINRIQKLRKKCNLVPTDEITVYYKAKSEGTYLNSVIESHTEFIFTTIKAPLKPYPVSPSDKVLIQEKTQLKGSELEITLTRGSSLPGPACAYVNLNICANGSEQGGVLLLENPKGDNRLDLLKLKSVVTSIFGVKNTELAVFHDETEIQNQTDLLSLSGKTLCVTAGSAPSLINSSSTLLCQYINLQLLNAKPQECLMGTVGTLLLENPLGQNGLTHQGLLYEAAKVFGLRSRKLKLFLNETQTQEITEDIPVKTLNMKTVYVSVLPTTADF
Turning to B2, the binding entry was “binds”.

The values above are taken from article PMC9950318.
